Experimental data as given in US20150238483A1, “Traitement des neuronopathies motrices” (CENTRE NATIONAL DE LA RECHERCHE SCIENTIFIQUE- CNRS, priority 2012, published 2015).
Where a name gives a salt, the structure may show the parent alone.

System: immortalized SMA fibroblasts
Test: Distribution of the SMN protein to Cajal bodies (CBs) in immortalized SMA fibroblasts, immunolabeling, cells counted
Type: cell-based, human
Settings: compounds diluted to 1/1000 compared with examples 1 and 2; FIG. 1
Method: This immortalization is described in the publication Lefebvre S, Burlet P, Viollet L, Bertrandy S, Huber C, Belser C and Munnich A. A novel association of the SMN protein with major non-ribosomal nucleolar proteins and its implication in spinal muscular atrophy. Hum Mol Genet (2002) 11 (9): 1017-1027.
The blockers of the invention are commercially available (for example from Sigma-Aldrich) and are sold in 96-well plates, at 2 milligrams per molecule per well to be dissolved in 1 ml of DMSO.
In order to determine whether the calcium channel blockers exerted a positive effect, the inventors counted the cells which had the SMN protein located in the CBs out of 100 cells randomly selected for each experiment.
This experiment was repeated three times.
A value of induction by a factor equal to 1 was arbitrarily assigned to DMSO.
In order to evaluate the relationship between the concentration (dose) and the effect (response) on the CBs of the immortalized SMA cells, the inventors constructed a dose-response curve for each of the molecules.

## CCCCc1oc2ccccc2c1C(=O)c1cc(I)c(OCCN(CC)CC)c(I)c1 [Amiodarone hydrochloride, (2-butyl-3-benzofuranyl)[4-[2-(diethylamino)ethoxy]-3,5-diiodophenyl]methanone hydrochloride]
  induction factor of SMN protein distribution to CBs (DMSO = 1): 1
